# Measurements reported in patent US10450368.
# The chains behind the UniProt entries cited, without tags or fusion partners.
# UniProt P11387: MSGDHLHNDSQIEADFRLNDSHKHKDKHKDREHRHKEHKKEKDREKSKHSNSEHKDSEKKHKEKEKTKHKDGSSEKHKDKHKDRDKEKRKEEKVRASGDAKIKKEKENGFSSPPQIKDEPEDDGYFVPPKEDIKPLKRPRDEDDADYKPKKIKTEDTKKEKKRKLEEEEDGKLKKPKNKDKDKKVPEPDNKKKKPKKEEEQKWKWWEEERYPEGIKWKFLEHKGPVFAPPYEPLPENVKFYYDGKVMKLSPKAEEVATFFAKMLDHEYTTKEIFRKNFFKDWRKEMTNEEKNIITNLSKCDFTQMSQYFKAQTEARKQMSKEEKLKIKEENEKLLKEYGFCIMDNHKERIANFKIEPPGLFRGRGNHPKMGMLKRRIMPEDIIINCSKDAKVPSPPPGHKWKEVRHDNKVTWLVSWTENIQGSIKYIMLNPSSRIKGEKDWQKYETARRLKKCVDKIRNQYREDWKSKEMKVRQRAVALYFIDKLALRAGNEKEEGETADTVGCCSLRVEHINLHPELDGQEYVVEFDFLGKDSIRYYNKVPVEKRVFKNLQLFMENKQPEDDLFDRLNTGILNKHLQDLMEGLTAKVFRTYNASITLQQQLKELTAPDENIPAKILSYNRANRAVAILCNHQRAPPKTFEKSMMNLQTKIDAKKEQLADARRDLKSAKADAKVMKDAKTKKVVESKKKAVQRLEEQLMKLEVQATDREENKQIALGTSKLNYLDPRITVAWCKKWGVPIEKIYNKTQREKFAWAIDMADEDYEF
# These are yes or no findings as the source states them, for the method shown.
# Target: Scl-70 (UniProt P11387)
# Assay: condition: <100 relative luminescence units; up to 50 ug/ml; AtheNA Multi-Lyte ANA
binder,measurement,value
"CH236 (antibody, V domains shown) VH: QVQLVQSGAAVKRPGASVTISCRASGYTFTTYYIHWVRQAPGQRLELMGMIDPSRGRTDYAQKFQGRVTMSRDTSTSTLYMELRSLRPDDTALYYCVRNVGTEGSLLHYDYWGQGTLVTVSS VL: EIVLTQSPATLSVSPGERVTLSCRASQSVRNNLAWYRQKRGQAPRLLIYGASTRATGIPARFSGSGSGTEFTLTISSMQSEDFAVYYCQQYNNWWTFGQGTKVEIK",binding,no binding
